# Experimental data published in PMC7862700.
# Some of the results follow. The source does not settle which construct or isoform was used.
# Molecular target: T1, ELF2 (UniProt Q15723)
# T1 sequence: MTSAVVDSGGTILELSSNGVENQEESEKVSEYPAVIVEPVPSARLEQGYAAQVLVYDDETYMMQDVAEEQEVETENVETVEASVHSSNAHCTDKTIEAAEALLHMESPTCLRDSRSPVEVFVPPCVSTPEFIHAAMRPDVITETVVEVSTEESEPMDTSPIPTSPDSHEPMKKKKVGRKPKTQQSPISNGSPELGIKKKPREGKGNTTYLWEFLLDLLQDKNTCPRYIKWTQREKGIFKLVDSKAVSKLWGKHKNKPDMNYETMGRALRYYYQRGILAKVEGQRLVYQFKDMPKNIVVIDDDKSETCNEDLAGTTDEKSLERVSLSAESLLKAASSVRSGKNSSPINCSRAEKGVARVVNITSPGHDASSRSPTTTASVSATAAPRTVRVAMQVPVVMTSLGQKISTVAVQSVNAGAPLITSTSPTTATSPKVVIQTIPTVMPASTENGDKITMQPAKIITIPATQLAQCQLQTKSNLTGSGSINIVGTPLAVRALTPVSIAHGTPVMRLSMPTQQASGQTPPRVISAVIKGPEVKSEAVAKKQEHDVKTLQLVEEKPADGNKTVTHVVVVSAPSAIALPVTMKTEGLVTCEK
# Test: DAPPL (digital affinity profiling via proximity ligation, sequencing)
# Conditions: 10 mM Tris-HCl pH 7.5, 50 mM NaCl, 1 mM DTT, 4% glycerol, room temperature, 30 min; GST-TFs on glutathione beads, 16-mer random dsDNA library, 0.1% …; high values mean tight binding; double strand, one strand shown; scale: fold enrichment (6-mer frequency, TF over GST control)
row,Sequence,binding signal
1,ACGCCC,1.08
2,TGCTTT,1.08
3,ACATCT,1.25
4,TCGTAC,1.08
5,ATCACC,1.07
6,AATCAT,1.06
7,GCTTTG,1.06
8,AACAAT,1.3
9,TTCTTT,1.24
10,GCCTAT,1.24
11,ACTACT,1.27
12,ATTGAA,1.05
13,ATTAAT,1.27
14,TAAATA,1.25
15,TGATGG,1.2
16,CTTACC,1.23
17,CCATTT,1.37
18,ACTTCA,1.38
19,TGATCT,1.16
20,TACCGA,1.07

row,Sequence,binding signal
1,TCGCAA,1.06
2,AACTAA,1.4
3,AACCCA,1.02
4,CATATT,1.23
5,ACTGCT,1.33
6,AACAAA,1.18
7,GATGCT,1.21
8,TATGCG,1.36
9,ACTCCT,1.48
10,CGACCT,1.4
11,GCCCCT,1.24
12,AAAACT,1.2
13,TCGACA,1.23
14,AATGCA,1.25
15,TTCCGT,2.55
16,CTTATG,1.37
17,TGAACT,1.24
18,TGTATC,1.4
19,AATGAG,1.11

# Another view of part of the listing above.
row	Sequence	binding signal
5	ACTGCT	1.33
6	AACAAA	1.18
